In paper PMC3355305, “Localized Dimerization and Nucleoid Binding Drive Gradient Formation by the Bacterial Cell Division Inhibitor MipZ” (Molecular Cell, 2012):
Residue numbers refer to the chain shown, from its start. The exact form of at least one protein or probe is not confirmed. For some assays here: No signal at the amounts used counts as a negative. At least one verdict was read from the data and is not stated in words by the source. Protein sequences can lack the tags named with them.

Tests used:
[1] = molecular target: T1, MipZ (Caulobacter crescentus) (UniProt Q9A6C9); experiment: competition with a labelled probe; conditions: SPR competition, 2 mM ATP, 6 uM competitor; EMSA: 1.25 mM nucleotide, 270 nM-5.6 uM protein, room temperature; recombinant protein
T1 sequence (looked up, limits assumed): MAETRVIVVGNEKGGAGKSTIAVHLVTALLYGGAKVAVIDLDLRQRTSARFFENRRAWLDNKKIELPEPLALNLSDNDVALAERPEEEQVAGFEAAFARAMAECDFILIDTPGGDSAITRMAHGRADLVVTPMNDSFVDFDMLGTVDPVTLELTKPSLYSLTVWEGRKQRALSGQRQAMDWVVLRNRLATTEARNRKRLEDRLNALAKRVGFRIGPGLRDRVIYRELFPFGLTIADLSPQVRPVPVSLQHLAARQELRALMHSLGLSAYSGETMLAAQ

[2] = molecular target: T2, MipZ-K13A (Caulobacter crescentus) (UniProt Q9A6C9); experiment: SPR; conditions: ADP; SPR: buffer P2 or buffer BC (Mg2+-containing) with 2 mM nucleotide; recombinant protein; label: biotin (immobilized)
T2 sequence (looked up, limits assumed): T1 sequence (looked up, limits assumed) with K13A

[3] = molecular target: T1, MipZ (Caulobacter crescentus); experiment: SPR; conditions: SPR: buffer P2 or buffer BC (Mg2+-containing) with 2 mM nucleotide, recombinant protein, label: biotin (immobilized)
[4] = molecular target: T3, MipZ-G14V (Caulobacter crescentus) (UniProt Q9A6C9); experiment: SPR; conditions: ADP; SPR: buffer P2 or buffer BC (Mg2+-containing) with 2 mM nucleotide; recombinant protein; label: biotin (immobilized)
T3 sequence (looked up, limits assumed): T1 sequence (looked up, limits assumed) with G14V

[5] = molecular target: T4, MipZ-D42A (Caulobacter crescentus) (UniProt Q9A6C9); experiment: SPR; conditions: ADP; SPR: buffer P2 or buffer BC (Mg2+-containing) with 2 mM nucleotide; recombinant protein; label: biotin (immobilized)
T4 sequence (looked up, limits assumed): T1 sequence (looked up, limits assumed) with D42A

[6] = molecular target: T5, MipZ-K18Q (Caulobacter crescentus) (UniProt Q9A6C9); experiment: SPR; conditions: ADP; SPR: buffer P2 or buffer BC (Mg2+-containing) with 2 mM nucleotide; recombinant protein; label: biotin (immobilized)
T5 sequence (looked up, limits assumed): T1 sequence (looked up, limits assumed) with K18Q

Sequence | binding result [1] | binding result [2] | binding result ([3]; 2 mM ATP without Mg2+ (10 mM EDTA)) | binding result ([3]; ADP) | binding result ([3]; no nucleotide) | binding result [4] | binding result [5] | binding result [6]
GTCGACAGAGTTCGCTAACATCGAGC (double strand) [ran2 unlabelled competitor] | binds |  |  |  |  |  |  | 
GTCGACAGAGTTCGCTAACATCGAGC (double strand) [ran2] |  | no binding | no binding | no binding | no binding | no binding | no binding | no binding
